Patent US20100272696A1, “Human Bone-Forming Cells In The Treatment of Inflammatory Rheumatic Diseases” (BONE THERAPEUTICS S.A., priority 2007, published 2010)
At least one compound was matched to its structure with a doubt left.

Test system: Carrageenan-Induced Ankle/Paw Inflammation
Assay: Model of Carrageenan-Induced Ankle/Paw Inflammation (1)
Assay type: in vivo, SWISS mice
Details: 24 h after carrageenan, DEX 1 mg/kg, OB 1*10^6, FIG. 3
Method: Sigma, Switzerland) in PBS into the hind paw of 8 weeks old SWISS mice; each animal receiving a single injection in each hind paw (Table 3). […] Sigma Switzerland) at a concentration of 1 mg/kg, or 1*10^6 human bone-forming cells (OB) (derived from bone marrow mesenchymal stromal cells as described in Example 1A) or a combination of DEX and OB. [table]

In the case of `C[C@@H]1C[C@H]2[C@@H]3CCC4=CC(=O)C=C[C@]4(C)[C@@]3(F)[C@@H](O)C[C@]2(C)[C@@]1(O)C(=O)CO` [Dexamethasone], the “inhibition of inflammation (ankle diameter)” value is reported as “totally lost”.
